Results from article PMC7670567.
These are yes or no findings as the source states them, for the method shown. Some entries that bind do so weakly or less than the wild type.

By UniProt entry, the sequences of proteins in these tests, tags left out.
UniProt Q13489: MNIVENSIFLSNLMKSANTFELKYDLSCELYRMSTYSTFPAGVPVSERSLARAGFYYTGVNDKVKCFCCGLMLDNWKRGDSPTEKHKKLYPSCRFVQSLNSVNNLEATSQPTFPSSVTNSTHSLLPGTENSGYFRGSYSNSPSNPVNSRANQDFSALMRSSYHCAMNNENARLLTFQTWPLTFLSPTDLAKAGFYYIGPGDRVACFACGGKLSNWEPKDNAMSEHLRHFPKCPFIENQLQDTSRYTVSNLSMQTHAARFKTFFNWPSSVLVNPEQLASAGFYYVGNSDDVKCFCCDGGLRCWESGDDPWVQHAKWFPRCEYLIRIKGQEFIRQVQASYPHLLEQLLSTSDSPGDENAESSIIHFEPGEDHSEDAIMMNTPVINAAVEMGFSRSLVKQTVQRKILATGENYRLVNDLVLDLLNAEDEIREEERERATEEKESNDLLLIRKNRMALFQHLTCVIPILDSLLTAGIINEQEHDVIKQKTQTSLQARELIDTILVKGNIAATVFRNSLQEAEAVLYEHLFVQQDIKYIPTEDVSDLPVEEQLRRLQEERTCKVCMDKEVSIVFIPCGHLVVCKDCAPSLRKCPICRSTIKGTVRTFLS
UniProt O00571: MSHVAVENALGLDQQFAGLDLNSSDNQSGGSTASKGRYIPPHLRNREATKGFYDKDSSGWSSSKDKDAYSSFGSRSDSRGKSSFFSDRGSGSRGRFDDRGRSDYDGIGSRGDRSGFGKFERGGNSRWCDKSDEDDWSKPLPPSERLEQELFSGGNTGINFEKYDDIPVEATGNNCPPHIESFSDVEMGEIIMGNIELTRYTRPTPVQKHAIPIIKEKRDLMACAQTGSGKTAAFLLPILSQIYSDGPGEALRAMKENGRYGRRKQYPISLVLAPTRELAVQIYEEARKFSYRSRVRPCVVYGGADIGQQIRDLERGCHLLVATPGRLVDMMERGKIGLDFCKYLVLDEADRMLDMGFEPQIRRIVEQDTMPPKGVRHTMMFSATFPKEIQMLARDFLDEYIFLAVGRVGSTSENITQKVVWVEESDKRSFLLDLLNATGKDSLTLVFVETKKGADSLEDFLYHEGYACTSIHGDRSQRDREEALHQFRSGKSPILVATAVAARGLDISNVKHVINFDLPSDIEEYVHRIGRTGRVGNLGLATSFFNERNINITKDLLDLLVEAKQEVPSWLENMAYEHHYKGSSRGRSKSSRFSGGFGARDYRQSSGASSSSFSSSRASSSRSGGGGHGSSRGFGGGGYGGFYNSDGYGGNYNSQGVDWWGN
UniProt P01127: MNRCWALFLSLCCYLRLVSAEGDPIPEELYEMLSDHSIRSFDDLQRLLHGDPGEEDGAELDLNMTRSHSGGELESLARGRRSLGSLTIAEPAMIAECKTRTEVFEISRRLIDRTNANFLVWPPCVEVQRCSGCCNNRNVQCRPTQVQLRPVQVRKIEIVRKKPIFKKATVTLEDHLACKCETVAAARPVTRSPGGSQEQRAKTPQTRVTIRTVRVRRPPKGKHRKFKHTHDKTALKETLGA

What was measured:
Experiment in all cases: two-hybrid; automated high-throughput yeast two-hybrid system (Myrexis); 27 HAX1 baits screened, HAX1 also prey from 21 baits; nine libraries (brain, substantia nigra, hypothalamus, hippocampus, spleen, liver, colon, testis, breast cancer/prostate cancer)
[1] = biological target: baculoviral IAP repeat-containing 3 (BIRC3), two-hybrid bait (UniProt Q13489)
[2] = biological target: DDX3X RNA helicase, two-hybrid bait (UniProt O00571)
[3] = biological target: platelet-derived growth factor subunit B (PDGFB), two-hybrid bait (UniProt P01127)
[4] = biological target: T1, clock circadian regulator (CLOCK), two-hybrid bait (UniProt O15516)
T1 sequence: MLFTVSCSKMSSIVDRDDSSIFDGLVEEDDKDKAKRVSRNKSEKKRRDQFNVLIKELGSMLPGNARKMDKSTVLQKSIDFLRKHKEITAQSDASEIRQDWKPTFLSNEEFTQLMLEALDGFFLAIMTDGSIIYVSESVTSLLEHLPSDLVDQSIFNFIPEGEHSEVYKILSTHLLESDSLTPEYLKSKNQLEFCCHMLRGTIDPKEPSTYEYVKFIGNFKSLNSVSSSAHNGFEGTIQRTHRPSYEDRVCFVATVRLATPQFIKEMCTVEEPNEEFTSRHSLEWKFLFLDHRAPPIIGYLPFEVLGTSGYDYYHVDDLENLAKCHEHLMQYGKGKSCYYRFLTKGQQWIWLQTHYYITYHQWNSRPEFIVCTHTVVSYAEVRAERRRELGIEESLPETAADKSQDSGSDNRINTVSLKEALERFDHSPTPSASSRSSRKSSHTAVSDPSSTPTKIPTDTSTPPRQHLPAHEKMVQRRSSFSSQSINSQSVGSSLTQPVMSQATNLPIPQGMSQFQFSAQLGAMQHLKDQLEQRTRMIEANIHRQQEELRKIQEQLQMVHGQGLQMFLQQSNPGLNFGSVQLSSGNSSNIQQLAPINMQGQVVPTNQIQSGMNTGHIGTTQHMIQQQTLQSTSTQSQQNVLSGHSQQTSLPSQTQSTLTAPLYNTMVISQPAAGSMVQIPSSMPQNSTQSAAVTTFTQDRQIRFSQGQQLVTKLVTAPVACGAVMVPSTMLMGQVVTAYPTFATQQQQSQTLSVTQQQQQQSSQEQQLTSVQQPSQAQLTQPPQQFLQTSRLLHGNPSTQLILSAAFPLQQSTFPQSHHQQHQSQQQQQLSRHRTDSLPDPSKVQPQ

binding [1]: binds | binding [2]: binds | binding [3]: binds | binding [4]: binds
Substance: HCLS1-associated protein X-1 (HAX1), yeast two-hybrid baits and prey clones (from UniProt O00165 1-279)
